According to PubChem BioAssay AID1508600 (Functional Genomics Laboratory (NCATS/FGL), 2020):
Out of some 53,000 sequences screened, about 3,700 (7%) were called active.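 The calls were made as follows: active = gene knockdowns whose robust z-score for IL-1 alpha signal is at least 2 or at most -2, so actives lie on both sides; inactive = the rest.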 The list shows a part of the results.

assay: Components of the Cytosolic LPS Sensing Pathway: Gene Identification via Genome-wide siRNA Screen; conditions: RAW264.7 macrophages, IL-1a HTRF, actives lie on both sides, screened at 100 nM (by protocol), cells primed 5 h with Pam3CSK4 first;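 also: robust z of the log signal after scaling to non-targeting control siRNA wells of the plate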
Outline: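 Supernatant IL-1a by HTRF from RAW264.7 cells primed with Pam3CSK4 (5 hours) and transfected with LipidA (24 hour) after 48h siRNA knockdown at 100 nM; cell viability checked with CellTiter-Glo.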

| Sequence | z-score |
| --- | --- |
| GGAAAGAAAUUGUAAAUGGTT against Nrcam | inactive: -0.122 |
| GGCUGACAGUAACAAGUGGTT against Fignl1 | active: 3.72 |
| GGAGUGACACUAUUGGGAATT against Gm10283 | inactive: 0.671 |
| GGCAGAGAAAACAAGAUUATT against Arc | inactive: -0.226 |
| GGCAAUACAAACAAGUUCUTT against Klhdc2 | inactive: 1.05 |
| CCAUAUUUGAAGUUUGAACTT against Rundc3b | inactive: 0.612 |
| GGAGGAAAGACGAAUCAACTT against Clcn7 | inactive: 1.44 |
| GGGCAUUUCAUACAACUCATT against Wnk1 | inactive: -1.03 |
| CGUGUAAACGCAAUUAAAATT against Zfp870 | inactive: 0.272 |
| GGAGAGACCACCCUUUCAGTT against Fahd2a | inactive: -0.432 |
| CCAUUAUGUCGAUUCUAUCTT against Ndp | inactive: -0.062 |
| CCCUCCACUAUGAUCAAUCTT against Adgrg1 | inactive: 0.506 |
| CGAGUAAAAGAGAUCUACATT against Eya1 | inactive: 1.51 |
| GCAACGAGGUACUGUUUUATT against Rab7b | inactive: 0.626 |
| GCUGCUCAAUCGGAAAUACTT against Clk1 | active: -2.06 |
| GGGAGCUCCUUACAGAGACTT against 1700041G16Rik | inactive: -0.102 |
| GGGCCAUCCUUUGGUUACATT against Dtnb | inactive: -0.25 |
| GCGACAAAUCAAAAAGGCCTT against Dnajb9 | inactive: -0.0942 |
| GGAACACAAUGGAGACACATT against Prdm15 | inactive: 1.69 |
| GGUAGUGUCUAACUUCUGGTT against Zkscan17 | active: 2.13 |
| CGCCUCUAACUUAAUGUUUTT against Dnajc8 | inactive: 0.362 |
| GGACUGUGACAAAGCACAUTT against Klk1b4 | inactive: 0.805 |

| Sequence | z-score |
| --- | --- |
| CCACGUCUCUUAAGUGAAATT against Scamp1 | inactive: 0.569 |
| AGAUAUUUGGCUGUGACCGTT against Amt | inactive: -1.33 |
| GGAGCUCAAGGAAGAGUACTT against Spc25 | inactive: -0.0738 |
| UGGUUACGAACCCAUGGGUTT against Amelx | inactive: -1.11 |
| GCAUAAGUAUAAUCCUGUUTT against Plagl1 | inactive: -1.67 |
| CGAGGGAGACGAAAUUGUCTT against Fuom | inactive: -0.401 |
| GGAGGAACUGAUGACUCUGTT against Eepd1 | inactive: 0.732 |
| GGAAGUAAAGAGGAUCUCATT against Vat1l | inactive: -0.678 |
| GGGAAACAGAUGAAAGAGUTT against Relch | inactive: 0.0344 |
| GCUGUAAAACCUGUCGUAATT against Mt4 | inactive: -0.196 |
| GGAAAGAAUUGAAUACUCGTT against Gpr89 | inactive: -0.279 |
| CCUCAGUUUUGCAUAUUAUTT against Dcun1d3 | inactive: -1.24 |
| GGAGCUGAAAACCUGAGGATT against Pkn2 | inactive: -1.19 |
| GCGCAUUCAGAUUGUAACATT against Nr2c2 | inactive: -0.656 |
| GUAUGUUUGGGCUUAGCCUTT against Olfr1348 | inactive: -1.21 |
| CCAUGGUUAACAUUGACAUTT against Ppp1r16b | inactive: -0.812 |
| GCAGUGUCAGAGUUAGAAATT against Pon1 | inactive: -0.456 |
| CCACCUCACAUUAAAAAAGTT against Smc1a | inactive: -0.686 |
| GGUAUGAACACUUUCAAAATT against Olfr297 | inactive: 0.927 |
| GGUGUCCAAGCAGAAGCAGTT against Rab25 | inactive: -1.02 |
| GGUCUUCCGGAUCUUCAACTT against Adcyap1r1 | inactive: 1.33 |
| CCAAUUAUCCUUCUGUUACTT against Olfr790 | inactive: -0.765 |

Exported with bars between the fields: entries from further up.
Sequence | z-score
GGCAAUACAAACAAGUUCUTT against Klhdc2 | inactive: 1.05
CCAUAUUUGAAGUUUGAACTT against Rundc3b | inactive: 0.612
GGAGGAAAGACGAAUCAACTT against Clcn7 | inactive: 1.44
GGGCAUUUCAUACAACUCATT against Wnk1 | inactive: -1.03
CCAUUAUGUCGAUUCUAUCTT against Ndp | inactive: -0.062
CGAGUAAAAGAGAUCUACATT against Eya1 | inactive: 1.51
GCUGCUCAAUCGGAAAUACTT against Clk1 | active: -2.06
GGGAGCUCCUUACAGAGACTT against 1700041G16Rik | inactive: -0.102
CGCCUCUAACUUAAUGUUUTT against Dnajc8 | inactive: 0.362
GGACUGUGACAAAGCACAUTT against Klk1b4 | inactive: 0.805
CCACGUCUCUUAAGUGAAATT against Scamp1 | inactive: 0.569
AGAUAUUUGGCUGUGACCGTT against Amt | inactive: -1.33
GGAGCUCAAGGAAGAGUACTT against Spc25 | inactive: -0.0738
UGGUUACGAACCCAUGGGUTT against Amelx | inactive: -1.11
GGAGGAACUGAUGACUCUGTT against Eepd1 | inactive: 0.732
GGAAGUAAAGAGGAUCUCATT against Vat1l | inactive: -0.678
GCUGUAAAACCUGUCGUAATT against Mt4 | inactive: -0.196
GGAAAGAAUUGAAUACUCGTT against Gpr89 | inactive: -0.279
GCGCAUUCAGAUUGUAACATT against Nr2c2 | inactive: -0.656
GCAGUGUCAGAGUUAGAAATT against Pon1 | inactive: -0.456
GGUAUGAACACUUUCAAAATT against Olfr297 | inactive: 0.927

(further entries)

| Sequence | z-score |
| --- | --- |
| CGAGAAAAGACUAUGAUCCTT against Cep57l1 | inactive: -1.27 |
| GGAAGAAUCACCAUUGAAGTT against Plcz1 | inactive: -0.251 |
| GGCCUUUUUGCCACGUAUGTT against Dhrs3 | inactive: 0.204 |
| GGAACAAGUCUUCAACUCATT against Wap | inactive: -0.732 |
| CGACGAACCUGAGUAUAUUTT against Canx | inactive: -0.0578 |
| GGAAGAAACUGGAAAGAUUTT against Ankrd23 | inactive: -1.01 |
| CGAAGAAUGACGAUGAUAUTT against Ppp4r3a | active: -2.41 |
| CCACGAAUUAAGUAAUGGUTT against Rtl1 | inactive: 1.17 |
| GGGCACAAUUCAAAACUUATT against Pgm2 | inactive: 1.42 |
| GCACAAACUUAUGCUCUUUTT against Klrc3 | inactive: -1.76 |
| GCAGCUCACCAUCCUUCAATT against Fcnb | inactive: 0.391 |
| GGCCUAAUAUUUUCAUAGATT against Prdx6b | inactive: 0.881 |
| GGCCAACCUACUUUUCUGGTT against Mgll | inactive: -1.18 |
| GCCAGAAGGACCUCUUCACTT against Arhgap24 | inactive: -1.51 |
| GGAUCAUCAGUUUCUUUAUTT against 4930486L24Rik | inactive: -0.75 |
| GGGAAGUGGAAACAGUUCUTT against Icam2 | inactive: 0.461 |
| GGGAAAUUGUAUUCAAUACTT against Cebpz | inactive: -0.296 |
| GGGUUACACAGAGUACAAATT against Snx15 | inactive: -0.484 |
| CGACAAUCAGGAGAUUGCATT against Npm3 | inactive: -0.484 |
| GGCUGAGUCUGGCUAACUUTT against Dio3 | inactive: -1.07 |
| CCUAAGUAUCUUCUGUUGGTT against Hilpda | inactive: 0.438 |
| GCAAGCCAUGAGACACCUUTT against Olfr843 | inactive: 0.929 |

| Sequence | z-score |
| --- | --- |
| GGAAAGCAUGAGUUAAUAATT against Slain2 | inactive: 1.38 |
| CGAUGGAGCUUUCAAAACUTT against Treml4 | inactive: 0.617 |
| GCUAUUUCUAGGCAGACUGTT against Ypel5 | inactive: 0.642 |
| GGACCAGACUUUGAAGAAUTT against Homer3 | inactive: 0.777 |
| GGACCUGAGAUAUUUUCUGTT against Mfap5 | inactive: -0.518 |
| GGUGCUGUGAUAGAUCAGUTT against Zdhhc13 | inactive: 0.227 |
| GCCAGACUAAACAAUACCCTT against Cldn19 | inactive: 0.305 |
| GGCUUAUUAUCAGGAAAUGTT against Plcz1 | inactive: -1.32 |
| GGAAAUCUUUAUACAAGGATT against Pomgnt1 | inactive: 0.923 |
| GCUAUCAACAAUCUUCGAATT against Cep131 | inactive: 1.11 |
| GGUCUUUACCAUACACAGCTT against Zfp352 | inactive: 0.242 |
| GCCCUGGAAAGGAUGUUUGTT against Hba-a1 | inactive: -0.607 |
| GCAAUCACAAUCAGCUCCGTT against Vmn1r83 | inactive: -0.0498 |
| CGUCCUUUAUUAGAGAUGATT against Got1 | inactive: -0.903 |
| GCCACCAUUCGGAAAUUUGTT against Lrrc56 | inactive: -0.891 |
| CCUGUAUAGGCAGCCUAGATT against Carmil3 | inactive: 0.982 |
| GGUUGGUUUGAAGAUCAAGTT against Pole2 | inactive: 1.38 |
| GCUACUAUUGUGUUCUGAATT against Drd1 | active: 2.24 |
| GGUUCCAAGUCUAGUGGUGTT against Jpt1 | inactive: 1.48 |
| GGGCAGAUGUAAUUCUUGUTT against Ctsm | inactive: 1.91 |
| CCAGCAUGCACUCAGAUUATT against Trib1 | inactive: 1.5 |
| AGCAUCAUUACUGGAUUCCTT against Olfr859 | inactive: -0.779 |

| Sequence | z-score |
| --- | --- |
| GCAGUUAAAUCCCUUUCAUTT against Gin1 | inactive: -0.228 |
| GGAUUACAAUCAGGAGGUGTT against Irf8 | inactive: -1.64 |
| GCACAACAGCUAGCAAAUATT against Ppp1r26 | inactive: 0.704 |
| CCUCUCACUAAAGACUUCCTT against Dlgap2 | inactive: 1.31 |
| GGGUGAUGAUGCAUAUAAGTT against Asb5 | inactive: -1.45 |
| GGAAUUUGCUGAAUUUAGUTT against Kdm4c | inactive: 0.681 |
| GGGUACUCACAGGAAAGUGTT against Olfr411 | inactive: 0.985 |
| CGAGGAACUUCUGUGGAAATT against Mtus1 | inactive: 1.34 |
| GGCGUGGAUUCUCAGAUAGTT against Pnn | inactive: -1.66 |
| CCCUCCAAUAUGGUUCACCTT against Optn | inactive: -0.684 |
| GGAGGUGGAUGUUAAAGUUTT against Ubxn2a | inactive: -0.206 |
| GGUCUCAUUUCAAAUGGUUTT against Lonrf3 | inactive: 0.63 |
| GCUGAGGCAUAAAAACGAGTT against Atad3a | inactive: -0.643 |
| GGUCUUUCCAUUCAUACUUTT against Sec24a | inactive: -1.52 |
| GGUGUUCUGUGGUCAUGAGTT against Haghl | inactive: -0.741 |
| CCUCUACUACAACUGAUUATT against Lamp3 | inactive: 1.17 |
| GAGCUACGAGGUACAGUUATT against Ifi202b | inactive: 1.29 |
| GCUUACCAAGUGAACACACTT against Mrpl12 | inactive: 0.906 |
| GGCAAGGCUACUACUUGCATT against Fgf14 | inactive: -0.117 |
